Experimental data as given in PMC9551036, “A selective and orally bioavailable VHL-recruiting PROTAC achieves SMARCA2 degradation in vivo” (Nature Communications, 2022).
“And” between values parts separate entries of the source, which are not always exact repeats. Identical values can stand only once. Further values from the same series stand in other lists.

By UniProt entry, the sequences of proteins in these tests, tags left out.
UniProt P51531, whole entry: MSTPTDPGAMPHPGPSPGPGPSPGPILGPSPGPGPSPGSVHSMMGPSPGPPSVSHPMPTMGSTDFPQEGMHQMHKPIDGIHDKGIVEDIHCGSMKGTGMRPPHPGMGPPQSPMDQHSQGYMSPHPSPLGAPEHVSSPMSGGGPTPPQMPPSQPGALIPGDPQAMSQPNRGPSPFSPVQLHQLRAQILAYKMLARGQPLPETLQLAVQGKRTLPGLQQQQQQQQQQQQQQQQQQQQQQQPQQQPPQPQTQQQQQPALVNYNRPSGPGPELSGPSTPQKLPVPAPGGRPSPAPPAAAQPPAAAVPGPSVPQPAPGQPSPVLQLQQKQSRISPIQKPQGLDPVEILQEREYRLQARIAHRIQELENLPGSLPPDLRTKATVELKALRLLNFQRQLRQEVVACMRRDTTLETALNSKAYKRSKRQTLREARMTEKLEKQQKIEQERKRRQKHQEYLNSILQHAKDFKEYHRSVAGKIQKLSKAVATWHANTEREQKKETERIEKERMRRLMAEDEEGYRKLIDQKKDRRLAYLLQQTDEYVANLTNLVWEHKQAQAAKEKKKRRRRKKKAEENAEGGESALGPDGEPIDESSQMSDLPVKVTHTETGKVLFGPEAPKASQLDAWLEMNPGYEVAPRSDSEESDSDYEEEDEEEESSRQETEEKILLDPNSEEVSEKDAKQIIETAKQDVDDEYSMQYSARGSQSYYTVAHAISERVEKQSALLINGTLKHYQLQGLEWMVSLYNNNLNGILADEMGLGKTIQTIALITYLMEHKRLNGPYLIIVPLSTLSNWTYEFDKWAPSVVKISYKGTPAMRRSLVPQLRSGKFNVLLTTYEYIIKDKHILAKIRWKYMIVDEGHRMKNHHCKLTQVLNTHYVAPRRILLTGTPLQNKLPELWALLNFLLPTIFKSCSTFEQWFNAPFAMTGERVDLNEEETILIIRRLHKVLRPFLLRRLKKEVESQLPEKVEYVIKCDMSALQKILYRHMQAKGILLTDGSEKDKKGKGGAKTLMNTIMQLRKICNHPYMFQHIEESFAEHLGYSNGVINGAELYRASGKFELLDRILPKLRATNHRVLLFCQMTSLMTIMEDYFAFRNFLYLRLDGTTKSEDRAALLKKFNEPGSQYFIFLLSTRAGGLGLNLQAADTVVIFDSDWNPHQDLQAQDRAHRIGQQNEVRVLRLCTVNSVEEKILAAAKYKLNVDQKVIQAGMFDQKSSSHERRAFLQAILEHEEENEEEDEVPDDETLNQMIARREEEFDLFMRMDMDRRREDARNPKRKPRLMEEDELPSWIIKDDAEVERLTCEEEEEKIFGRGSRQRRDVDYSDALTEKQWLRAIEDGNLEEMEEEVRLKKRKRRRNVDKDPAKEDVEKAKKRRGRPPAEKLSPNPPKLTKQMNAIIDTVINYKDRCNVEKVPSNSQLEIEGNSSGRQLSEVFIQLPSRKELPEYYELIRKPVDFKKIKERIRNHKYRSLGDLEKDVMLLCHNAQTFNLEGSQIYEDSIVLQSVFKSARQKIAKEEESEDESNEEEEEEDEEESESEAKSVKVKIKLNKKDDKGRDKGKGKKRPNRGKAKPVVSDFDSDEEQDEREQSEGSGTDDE

Target: SMARCA2 (Homo sapiens, UniProt P51531)
Assay: SMARCA2 capillary electrophoresis protein assay in RKO cells
Format: cell-based
Set-up: endogenous in cells; host or cells: RKO, NCI-H1568, A549, HCT116, LU99, HCC-364, HCT-15, HCC4006, SK-N-AS
Method: 130,000–200,000 cells were seeded in 24-well plates and incubated until settled down or overnight. Compounds were dissolved in DMSO and added to cells in indicated concentrations using a digital dispenser following an optional media change. […] For SMARCA2/4 half-life determination, 150,000 or 200,000 cells were seeded in 24-well plates. […] For SMARCA2/4 re-synthesis measurements, 200,000 cells were seeded in 24-well plates. […] Medium was removed, cells were washed with PBS and lysed with 80 µl Lysis Buffer (MSD Tris Lysis Buffer (#R60TX-2) + Halt Inhibitor Cocktail (100x) + Benzonase 0.5 µL/ml). Samples were frozen at −80 °C and thawed at room temperature before use. Samples were transferred to a V-bottom plate and insoluble debris was pelleted by centrifugation for 5 min at maximum speed. The supernatant was transferred to a fresh plate. Master Mix and Ladder were prepared according to manufacturer’s instructions for 12–230 kDa Wes Separation Module, 8 × 25 capillary cartridges, Protein Simple #SM-W004 with Anti-Rabbit Detection Module for Wes, Peggy Sue or Sally Sue, Protein Simple #DM-001. 4.8 µl lysate were mixed with 1.2 µl Master Mix to achieve a protein concentration of ~0.5 µg/µl. […] Wes plates were prepared and run according to manufacturer’s instructions. Proteins were quantified with accompanying Compass Software. SMARCA2/4 protein levels were normalised to GAPDH. […] Where applicable, curves were fitted using a 4-parametric logistic model.

Cc1ncsc1-c1ccc(C(CCC(C)CCN2CCC(c3ccc4c(c3)n(C3CCCC3)c3nc(=O)c5c(Br)cccc5n43)CC2)NC(=O)C2CC(O)CN2C(=O)C(NC(=O)C2(F)CC2)C(C)(C)C)cc1 (stereo not shown) [ACBI2]
% protein remaining (SM2, conc 9.54e-12 mol/l): 151.94% and 131.079% | % protein remaining (SM2, conc 3.81e-11 mol/l): 163.034% and 152.159% | % protein remaining (SM2, conc 1.53e-10 mol/l): 191.351% and 159.697% | % protein remaining (SM2, conc 6.1e-10 mol/l): 151.794% and 119.537% | % protein remaining (SM2, conc 2.44e-9 mol/l): 111.743% and 88.6031% | % protein remaining (SM2, conc 9.77e-9 mol/l): 64.9972% and 67.4221% | % protein remaining (SM2, conc 3.91e-8 mol/l): 39.7588% and 46.4282% | % protein remaining (SM2, conc 1.56e-7 mol/l): 20.2631% and 20.7399% | % protein remaining (SM2, conc 6.25e-7 mol/l): 22.8931% and 23.7185% | % protein remaining (SM2, conc 2.5e-6 mol/l): 18.9321% and 23.8685%
